PubChem BioAssay AID1224830, NIAID, 2016
Shown is a random part of about 18,000 reagents. Over the whole deposit, about 2,900 (16%) got an active call. 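Calls are made per well; low scores hint the gene aids the LPS response, high scores that it dampens it.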 A number with no mark means an inactive call. Repeated entries: four replicate wells of each siRNA pool. Reagent sequences are not shown.

- Test: 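Genes whose knock-down alters the TNF-alpha reporter response to LPS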 (primary screen)
- Cell system: human THP-1 monocytic leukaemia cells, TNF dual-luciferase reporter clone, PMA-differentiated to macrophage-like cells
- Knock-down reagent: siRNA pool against human genes, 50 nM
- Duration: LPS for 4 h, given about 3 days after siRNA transfection
- Challenge: bacterial LPS (TLR4 ligand), 10 ng/ml
- Read-out: 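TNF firefly reporter luminescence divided by renilla, normalised to the plate median, then turned into a robust z-score for each replicate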
- Reading the numbers: TNF reporter robust z-score: higher = stronger TNF reporter response to LPS
- Hit rule: 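Each well counts as active if its z-score is over 2.8 or under -1.5; controls are left without a call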

MAGEE1 (MAGE family member E1) — TNF reporter robust z-score: -0.68
MAGEE1 (MAGE family member E1) — TNF reporter robust z-score: -1.29
MAGEE1 (MAGE family member E1) — TNF reporter robust z-score: -0.76
MAGEE1 (MAGE family member E1) — TNF reporter robust z-score: -0.8
CAPN6 (calpain 6) — TNF reporter robust z-score: -0.8
CAPN6 (calpain 6) — TNF reporter robust z-score: -0.22
CAPN6 (calpain 6) — TNF reporter robust z-score: -0.74
CAPN6 (calpain 6) — TNF reporter robust z-score: 0.09
HPCA (hippocalcin) — TNF reporter robust z-score: 0.14
HPCA (hippocalcin) — TNF reporter robust z-score: -0.8
HPCA (hippocalcin) — TNF reporter robust z-score: -0.49
HPCA (hippocalcin) — TNF reporter robust z-score: -1
SCPEP1 (serine carboxypeptidase 1) — TNF reporter robust z-score: 0.09
SCPEP1 (serine carboxypeptidase 1) — TNF reporter robust z-score: -0.05
SCPEP1 (serine carboxypeptidase 1) — TNF reporter robust z-score: -0.17
SCPEP1 (serine carboxypeptidase 1) — TNF reporter robust z-score: -0.52
MYORG (myogenesis regulating glycosidase) — TNF reporter robust z-score: 2.57
MYORG (myogenesis regulating glycosidase) — TNF reporter robust z-score: 0.15
MYORG (myogenesis regulating glycosidase) — TNF reporter robust z-score: -1
MYORG (myogenesis regulating glycosidase) — TNF reporter robust z-score: -0.25
GIT1 (GIT ArfGAP 1) — TNF reporter robust z-score: -1.19
GIT1 (GIT ArfGAP 1) — TNF reporter robust z-score: -0.85
GIT1 (GIT ArfGAP 1) — TNF reporter robust z-score: -0.86
GIT1 (GIT ArfGAP 1) — TNF reporter robust z-score: -0.04
TSPAN14 (tetraspanin 14) — TNF reporter robust z-score: -1.41
TSPAN14 (tetraspanin 14) — TNF reporter robust z-score: -0.55
TSPAN14 (tetraspanin 14) — TNF reporter robust z-score: -1.01
TSPAN14 (tetraspanin 14) — TNF reporter robust z-score: -0.01
KDELR3 (KDEL endoplasmic reticulum protein retention receptor 3) — TNF reporter robust z-score: 1.32
KDELR3 (KDEL endoplasmic reticulum protein retention receptor 3) — TNF reporter robust z-score: 2.51
KDELR3 (KDEL endoplasmic reticulum protein retention receptor 3) — TNF reporter robust z-score: 0.19
KDELR3 (KDEL endoplasmic reticulum protein retention receptor 3) — TNF reporter robust z-score: 2.45
IL1R2 (interleukin 1 receptor type 2) — TNF reporter robust z-score: 2.29
IL1R2 (interleukin 1 receptor type 2) — TNF reporter robust z-score: 2.65
IL1R2 (interleukin 1 receptor type 2) — TNF reporter robust z-score: 2.77
IL1R2 (interleukin 1 receptor type 2) — TNF reporter robust z-score: 2.21
ANO10 (anoctamin 10) — TNF reporter robust z-score: -0.52
ANO10 (anoctamin 10) — TNF reporter robust z-score: 0.52
ANO10 (anoctamin 10) — TNF reporter robust z-score: -0.63
ANO10 (anoctamin 10) — TNF reporter robust z-score: 1.04
OTOG (otogelin) — TNF reporter robust z-score: 0.09
OTOG (otogelin) — TNF reporter robust z-score: -0.51
OTOG (otogelin) — TNF reporter robust z-score: -0.52
OTOG (otogelin) — TNF reporter robust z-score: -0.12
MTNR1A (melatonin receptor 1A) — TNF reporter robust z-score: -1.22
MTNR1A (melatonin receptor 1A) — TNF reporter robust z-score: 0.43
MTNR1A (melatonin receptor 1A) — TNF reporter robust z-score: -0.71
MTNR1A (melatonin receptor 1A) — TNF reporter robust z-score: 0.27

Part of the list above, reformatted:
target gene	TNF reporter robust z-score
SCPEP1 (serine carboxypeptidase 1)	0.09
SCPEP1 (serine carboxypeptidase 1)	-0.05
SCPEP1 (serine carboxypeptidase 1)	-0.17
SCPEP1 (serine carboxypeptidase 1)	-0.52
MYORG (myogenesis regulating glycosidase)	2.57
MYORG (myogenesis regulating glycosidase)	0.15
MYORG (myogenesis regulating glycosidase)	-1
